From paper PMC9881131
These are yes or no findings as the source states them, for the method shown. In cells and extracts the contact can be indirect. Some results given as binding are weak or reduced against the parent protein; the word gives no strength. Where a sequence is shown, tags or fusion partners need not be part of it.

By UniProt entry, the sequences of proteins in these tests, tags left out.
UniProt Q9UDV6: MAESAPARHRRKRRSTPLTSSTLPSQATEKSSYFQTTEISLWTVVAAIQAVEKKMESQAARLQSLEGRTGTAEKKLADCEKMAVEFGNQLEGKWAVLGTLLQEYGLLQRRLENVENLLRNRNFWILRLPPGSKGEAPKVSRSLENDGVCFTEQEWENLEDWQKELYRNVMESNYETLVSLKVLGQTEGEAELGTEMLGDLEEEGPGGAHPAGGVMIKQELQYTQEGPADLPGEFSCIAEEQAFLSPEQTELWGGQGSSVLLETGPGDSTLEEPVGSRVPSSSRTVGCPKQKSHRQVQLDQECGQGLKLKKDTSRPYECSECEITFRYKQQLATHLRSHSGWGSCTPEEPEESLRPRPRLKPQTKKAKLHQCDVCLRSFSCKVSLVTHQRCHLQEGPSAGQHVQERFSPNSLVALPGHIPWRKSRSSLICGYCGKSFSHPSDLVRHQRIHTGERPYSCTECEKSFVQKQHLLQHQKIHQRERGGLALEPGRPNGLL

How the values were obtained:
[1] = biological target: SFB-ZNF212 wild type (human) (UniProt Q9UDV6); assay: co-IP; 293T cells co-transfected with SFB-ZNF212 and Myc-TRAIP (WT or D1 to D5); lysates (NETN buffer) with benzonase; IP with anti-Flag bead, blot with anti-Myc antibody
Myc-ZNF212-WT (human) = Myc-ZNF212-WT (human) (UniProt Q9UDV6); assay: co-IP; 293T cells co-transfected with GFP-NEIL3 and Myc-ZNF212 WT or deletion mutants (N, M, C); 24 h; lysates with Benzonase; IP with anti-Myc bead, immunoblot

Row | binding [1] | binding (Myc-ZNF212-WT (human)) | Binder
1 | binds |  | Myc-TRAIP wild type (protein, UniProt Q9BWF2 1-469) MPIRALCTICSDFFDHSRDVAAIHCGHTFHLQCLIQWFETAPSRTCPQCRIQVGKRTIINKLFFDLAQEEENVLDAEFLKNELDNVRAQLSQKDKEKRDSQVIIDTLRDTLEERNATVVSLQQALGKAEMLCSTLKKQMKYLEQQQDETKQAQEEARRLRSKMKTMEQIELLLQSQRPEVEEMIRDMGVGQSAVEQLAVYCVSLKKEYENLKEARKASGEVADKLRKDLFSSRSKLQTVYSELDQAKLELKSAQKDLQSADKEIMSLKKKLTMLQETLNLPPVASETVDRLVLESPAPVEVNLKLRRPSFRDDIDLNATFDVDTPPARPSSSQHGYYEKLCLEKSHSPIQDVPKKICKGPRKESQLSLGGQSCAGEPDEELVGAFPIFVRNAILGQKQPKRPRSESSCSKDVVRTGFDGLGGRTKFIQPTDTVMIRPLPVKPKTKVKQRVRVKTVPSLFQAKLDTFLWS
2 |  | binds | GFP-NEIL3 (protein, UniProt Q8TAT5 1-605) MVEGPGCTLNGEKIRARVLPGQAVTGVRGSALRSLQGRALRLAASTVVVSPQAAALNNDSSQNVLSLFNGYVYSGVETLGKELFMYFGPKALRIHFGMKGFIMINPLEYKYKNGASPVLEVQLTKDLICFFDSSVELRNSMESQQRIRMMKELDVCSPEFSFLRAESEVKKQKGRMLGDVLMDQNVLPGVGNIIKNEALFDSGLHPAVKVCQLTDEQIHHLMKMIRDFSILFYRCRKAGLALSKHYKVYKRPNCGQCHCRITVCRFGDNNRMTYFCPHCQKENPQHVDICKLPTRNTIISWTSSRVDHVMDSVARKSEEHWTCVVCTLINKPSSKACDACLTSRPIDSVLKSEENSTVFSHLMKYPCNTFGKPHTEVKINRKTAFGTTTLVLTDFSNKSSTLERKTKQNQILDEEFQNSPPASVCLNDIQHPSKKTTNDITQPSSKVNISPTISSESKLFSPAHKKPKTAQYSSPELKSCNPGYSNSELQINMTDGPRTLNPDSPRCSKHNRLCILRVVGKDGENKGRQFYACPLPREAQCGFFEWADLSFPFCNHGKRSTMKTVLKIGPNNGKNFFVCPLGKEKQCNFFQWAENGPGIKIIPGC
